# Results: publication PMC10187093, “Synthesis, in silico modelling, and in vitro biological evaluation of substituted pyrazole derivatives as potential anti-skin cancer, anti-tyrosinase, and antioxidant agents” (Journal of Enzyme Inhibition and Medicinal Chemistry, 2023)
# Tested on: SCC-12
# Test: MTT antiproliferative/cytotoxicity assay, SCC-12
# Assay type: cell-based, human
# Conditions: IC50 HaCaT divided by IC50 SCC-12
# Experimental: Human-derived GFP-expressing melanoma A375 and epidermoid carcinoma A431 cell lines were purchased from Angio-Proteomie (Boston, MA). Human melanoma carcinoma SK-MEL-28 and human immortalised keratinocytes (HaCaT) cell lines were acquired from American Type Culture Collection (ATCC; Manassas, VA). […] The growth media of incubated cells were changed every 2–3 days until they attained 70–80% confluence, after which they were sub-cultured for experiments and re-passaging. DMSO was used as the vehicle to prepare a 10 mM stock solution of the test compounds.
# Stock solutions (10 mM) were prepared by dissolving each compound to be screened in DMSO.
structure (smiles),measurement,setting,value
"N.N.[Cl][Pt][Cl] [Cisplatin, cisplatin, reference compound]",selectivity index (SI) SCC-12,,0.8
same,selectivity index (SI) SCC-12,listed as cisplatin,0.4
